# Values quoted from earlier work as cited in patent publication US12569183B2 (University Of Maryland, Baltimore, priority 2018, dated 2026).
# The name of at least one read-out is uncertain.
# Conditions: traditional oral loading protocol
compound,measurement,value
CC(C)NCC(O)c1ccc(NS(C)(=O)=O)cc1 (stereo not shown) [sotalol],"time to reach Cmax,ss",3 to 5 days
